The test deals with HSV-1 ICP27 (wild type, from HSV-1 KOS infection) (HSV-1 (strain KOS)) (UniProt P10238). The test is described as follows: co-IP; HeLa cells transfected with Flag-tagged UIF constructs, infected 24 h later with HSV-1 KOS, WRL or ΔRGG (MOI 10) for 8 h; lysates (treated or not treated with RNase) immunoprecipitated with anti-ICP27 antibody P1119 on protein-G Dynabeads; blots probed with anti-Flag.

The chains behind the UniProt entries cited, without tags or fusion partners. Residues count along the entry.
UniProt P10238: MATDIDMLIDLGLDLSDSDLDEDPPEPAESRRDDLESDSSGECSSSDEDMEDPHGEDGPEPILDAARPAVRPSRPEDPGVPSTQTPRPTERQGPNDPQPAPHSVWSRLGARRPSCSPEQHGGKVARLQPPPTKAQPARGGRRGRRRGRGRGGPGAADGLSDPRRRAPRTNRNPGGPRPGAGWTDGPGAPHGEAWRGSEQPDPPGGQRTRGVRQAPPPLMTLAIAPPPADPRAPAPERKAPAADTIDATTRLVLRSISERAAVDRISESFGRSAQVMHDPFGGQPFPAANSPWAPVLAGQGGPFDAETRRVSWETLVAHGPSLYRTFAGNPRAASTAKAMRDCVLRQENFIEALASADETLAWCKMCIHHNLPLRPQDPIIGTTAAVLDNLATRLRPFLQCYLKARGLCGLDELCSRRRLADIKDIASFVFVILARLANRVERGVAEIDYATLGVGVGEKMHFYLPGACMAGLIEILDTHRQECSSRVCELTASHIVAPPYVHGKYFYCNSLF
UniProt Q96QD9, residues 177-318: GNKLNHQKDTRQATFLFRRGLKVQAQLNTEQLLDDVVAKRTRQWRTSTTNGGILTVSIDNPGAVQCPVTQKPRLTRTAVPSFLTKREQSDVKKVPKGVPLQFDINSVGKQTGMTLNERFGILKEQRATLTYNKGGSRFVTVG

The results in this text go back to article PMC6177440.

Results are given in words; binding and its absence hold for the method and conditions named. Binding seen in cells or lysates may run through a third protein.

On to “Flag-epitope tagged UIF C-terminal region (residues 177-318) (from UniProt Q96QD9 177-318) (domain or fragment)”, for which the binding entry is given as “no binding”.
